{"source": "patent US20110082212A1", "about": "“MULTI-S[…] ANDROGEN RECEPTOR MODULATORS AND METHODS OF USE THEREOF” (priority 2002, published 2011)", "molecular_target": "T1, androgen receptor (Rattus norvegicus, UniProt P15207)", "T1 construct": "from tissue; host or cells: Rat ventral prostate cytosol", "T1 sequence (P15207 1-902)": "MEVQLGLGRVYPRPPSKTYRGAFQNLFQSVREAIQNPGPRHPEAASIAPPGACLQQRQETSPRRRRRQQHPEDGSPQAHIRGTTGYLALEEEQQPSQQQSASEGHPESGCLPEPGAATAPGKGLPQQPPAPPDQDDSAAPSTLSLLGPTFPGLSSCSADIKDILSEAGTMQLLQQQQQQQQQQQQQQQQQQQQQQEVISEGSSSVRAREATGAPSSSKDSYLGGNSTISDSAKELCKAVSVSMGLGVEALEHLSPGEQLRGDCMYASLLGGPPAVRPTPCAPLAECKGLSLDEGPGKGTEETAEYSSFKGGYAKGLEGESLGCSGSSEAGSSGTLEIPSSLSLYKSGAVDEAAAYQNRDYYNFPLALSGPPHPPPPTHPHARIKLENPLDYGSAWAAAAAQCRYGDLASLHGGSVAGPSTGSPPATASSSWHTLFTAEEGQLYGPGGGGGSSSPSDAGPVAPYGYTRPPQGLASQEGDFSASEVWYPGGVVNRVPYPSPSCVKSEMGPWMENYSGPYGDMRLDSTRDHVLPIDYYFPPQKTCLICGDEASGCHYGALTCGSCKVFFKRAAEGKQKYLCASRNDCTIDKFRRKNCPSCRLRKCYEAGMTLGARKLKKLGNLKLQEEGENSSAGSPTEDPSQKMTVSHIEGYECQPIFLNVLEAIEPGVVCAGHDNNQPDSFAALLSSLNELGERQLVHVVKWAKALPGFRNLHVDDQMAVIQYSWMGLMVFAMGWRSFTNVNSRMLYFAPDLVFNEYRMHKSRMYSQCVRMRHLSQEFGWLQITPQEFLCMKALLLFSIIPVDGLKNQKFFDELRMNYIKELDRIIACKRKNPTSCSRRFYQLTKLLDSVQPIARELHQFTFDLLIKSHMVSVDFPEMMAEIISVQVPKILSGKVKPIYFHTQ", "experiment": "Androgen receptor binding affinities", "conditions": "relative binding affinity", "note": "At least one compound was matched to its structure with a doubt left.", "data": [{"smiles": "C[C@](O)(COc1c(F)cc(F)cc1F)C(=O)Nc1ccc([N+](=O)[O-])c(C(F)(F)F)c1", "note": "[Compound 11]", "values": [{"measurement": "RBA", "value": 5.0, "unit": "%"}]}]}
